Data as given in patent publication US20160207893A1, “NOVEL CALCIUM MODULATORS” (Myotherix, Inc., priority 2014, published 2016).

Tested on: iCell Cardiomyocytes (hIPS cardiomyocytes)
Experiment: Calcium transient dynamics in cardiomyocytes derived from human stem cells by Kinetic Image Cytometry
Format: cell-based
Conditions: reference compounds at 1 uM; under each experimental condition; 0.1% DMSO vehicle

COC(=O)C1=C(C)NC(C)=C(C(=O)OC)C1c1ccccc1[N+](=O)[O-] [nifedipine, reference compound]
CTD75 relative to vehicle control: ≤ 85 % of vehicle control
